Results on 1 substance are retold here after paper PMC4942255, “MutSα maintains the mismatch repair capability by inhibiting PCNA unloading”.

The chains behind the UniProt entries cited, without tags or fusion partners.
UniProt A0A1B4WRB1: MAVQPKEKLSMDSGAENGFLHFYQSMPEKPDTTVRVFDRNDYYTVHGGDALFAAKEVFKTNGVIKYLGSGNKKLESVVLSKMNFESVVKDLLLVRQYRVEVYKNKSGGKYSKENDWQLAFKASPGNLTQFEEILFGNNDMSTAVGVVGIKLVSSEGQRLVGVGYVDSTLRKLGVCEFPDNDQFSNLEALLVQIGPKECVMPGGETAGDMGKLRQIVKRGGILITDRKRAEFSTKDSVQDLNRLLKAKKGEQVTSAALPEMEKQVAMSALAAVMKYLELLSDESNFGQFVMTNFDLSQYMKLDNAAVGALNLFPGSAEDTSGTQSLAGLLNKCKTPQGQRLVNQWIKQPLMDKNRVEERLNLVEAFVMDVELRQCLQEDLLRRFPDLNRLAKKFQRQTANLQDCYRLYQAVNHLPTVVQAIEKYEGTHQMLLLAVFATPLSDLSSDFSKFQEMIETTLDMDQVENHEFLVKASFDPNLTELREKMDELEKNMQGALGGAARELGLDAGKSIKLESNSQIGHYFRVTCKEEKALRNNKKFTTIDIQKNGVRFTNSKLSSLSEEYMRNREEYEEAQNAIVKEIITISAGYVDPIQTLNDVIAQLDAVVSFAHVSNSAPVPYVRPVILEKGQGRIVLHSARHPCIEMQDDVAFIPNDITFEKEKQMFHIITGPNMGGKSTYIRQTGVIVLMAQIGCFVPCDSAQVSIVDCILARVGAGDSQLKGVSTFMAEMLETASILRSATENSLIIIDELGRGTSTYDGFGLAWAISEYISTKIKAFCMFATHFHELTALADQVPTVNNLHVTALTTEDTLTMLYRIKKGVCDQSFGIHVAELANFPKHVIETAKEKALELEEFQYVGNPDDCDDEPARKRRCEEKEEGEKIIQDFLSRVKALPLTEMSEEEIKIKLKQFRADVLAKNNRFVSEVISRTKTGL

Test [1] concerns the target T1, Xenopus laevis Msh6 N-terminal deletion mutant (Δ1–323) with C-terminal FLAG tag (Xenopus laevis).
T1 sequence: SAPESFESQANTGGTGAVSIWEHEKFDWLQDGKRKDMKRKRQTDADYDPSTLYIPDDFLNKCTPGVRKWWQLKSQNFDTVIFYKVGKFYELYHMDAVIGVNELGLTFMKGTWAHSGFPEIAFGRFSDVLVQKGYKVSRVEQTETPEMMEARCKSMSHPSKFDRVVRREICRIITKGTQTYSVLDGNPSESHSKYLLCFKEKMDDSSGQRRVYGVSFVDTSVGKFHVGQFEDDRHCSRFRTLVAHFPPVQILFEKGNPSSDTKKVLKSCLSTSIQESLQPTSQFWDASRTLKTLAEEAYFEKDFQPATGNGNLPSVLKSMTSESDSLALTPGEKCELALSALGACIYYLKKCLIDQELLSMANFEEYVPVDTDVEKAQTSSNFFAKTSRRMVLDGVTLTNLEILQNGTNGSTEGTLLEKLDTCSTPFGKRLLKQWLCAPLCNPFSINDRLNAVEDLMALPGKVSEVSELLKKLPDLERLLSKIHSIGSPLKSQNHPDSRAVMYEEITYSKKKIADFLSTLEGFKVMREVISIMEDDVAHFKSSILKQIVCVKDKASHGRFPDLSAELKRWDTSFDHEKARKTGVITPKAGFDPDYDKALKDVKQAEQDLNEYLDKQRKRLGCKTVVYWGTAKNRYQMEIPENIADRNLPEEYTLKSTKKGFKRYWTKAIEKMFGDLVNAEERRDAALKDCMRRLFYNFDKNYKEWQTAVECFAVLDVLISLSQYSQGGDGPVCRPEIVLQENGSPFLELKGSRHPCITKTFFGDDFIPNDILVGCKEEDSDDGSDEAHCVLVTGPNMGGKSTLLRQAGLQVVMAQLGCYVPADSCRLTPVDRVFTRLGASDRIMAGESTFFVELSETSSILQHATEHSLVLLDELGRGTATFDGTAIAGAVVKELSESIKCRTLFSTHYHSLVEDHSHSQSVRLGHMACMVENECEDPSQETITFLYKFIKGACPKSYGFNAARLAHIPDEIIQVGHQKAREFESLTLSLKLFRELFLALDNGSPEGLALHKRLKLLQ
The test can be described thus: co-purification (FLAG-M2 affinity, MonoQ, Superdex 200); xMsh2 and xMsh6-FLAG co-expressed in Sf9 cells; cleared lysate in buffer S (25 mM Tris-HCl pH 7.4, 250 mM NaCl) passed over DEAE Sepharose and FLAG-M2 agarose, eluted with FLAG peptide, then MonoQ and Superdex 200; fractions of ~2.5 x 10^5 pooled.

Test [2] concerns the target T2, Xenopus laevis Msh6 with C-terminal FLAG tag, wild type (Xenopus laevis).
T2 sequence: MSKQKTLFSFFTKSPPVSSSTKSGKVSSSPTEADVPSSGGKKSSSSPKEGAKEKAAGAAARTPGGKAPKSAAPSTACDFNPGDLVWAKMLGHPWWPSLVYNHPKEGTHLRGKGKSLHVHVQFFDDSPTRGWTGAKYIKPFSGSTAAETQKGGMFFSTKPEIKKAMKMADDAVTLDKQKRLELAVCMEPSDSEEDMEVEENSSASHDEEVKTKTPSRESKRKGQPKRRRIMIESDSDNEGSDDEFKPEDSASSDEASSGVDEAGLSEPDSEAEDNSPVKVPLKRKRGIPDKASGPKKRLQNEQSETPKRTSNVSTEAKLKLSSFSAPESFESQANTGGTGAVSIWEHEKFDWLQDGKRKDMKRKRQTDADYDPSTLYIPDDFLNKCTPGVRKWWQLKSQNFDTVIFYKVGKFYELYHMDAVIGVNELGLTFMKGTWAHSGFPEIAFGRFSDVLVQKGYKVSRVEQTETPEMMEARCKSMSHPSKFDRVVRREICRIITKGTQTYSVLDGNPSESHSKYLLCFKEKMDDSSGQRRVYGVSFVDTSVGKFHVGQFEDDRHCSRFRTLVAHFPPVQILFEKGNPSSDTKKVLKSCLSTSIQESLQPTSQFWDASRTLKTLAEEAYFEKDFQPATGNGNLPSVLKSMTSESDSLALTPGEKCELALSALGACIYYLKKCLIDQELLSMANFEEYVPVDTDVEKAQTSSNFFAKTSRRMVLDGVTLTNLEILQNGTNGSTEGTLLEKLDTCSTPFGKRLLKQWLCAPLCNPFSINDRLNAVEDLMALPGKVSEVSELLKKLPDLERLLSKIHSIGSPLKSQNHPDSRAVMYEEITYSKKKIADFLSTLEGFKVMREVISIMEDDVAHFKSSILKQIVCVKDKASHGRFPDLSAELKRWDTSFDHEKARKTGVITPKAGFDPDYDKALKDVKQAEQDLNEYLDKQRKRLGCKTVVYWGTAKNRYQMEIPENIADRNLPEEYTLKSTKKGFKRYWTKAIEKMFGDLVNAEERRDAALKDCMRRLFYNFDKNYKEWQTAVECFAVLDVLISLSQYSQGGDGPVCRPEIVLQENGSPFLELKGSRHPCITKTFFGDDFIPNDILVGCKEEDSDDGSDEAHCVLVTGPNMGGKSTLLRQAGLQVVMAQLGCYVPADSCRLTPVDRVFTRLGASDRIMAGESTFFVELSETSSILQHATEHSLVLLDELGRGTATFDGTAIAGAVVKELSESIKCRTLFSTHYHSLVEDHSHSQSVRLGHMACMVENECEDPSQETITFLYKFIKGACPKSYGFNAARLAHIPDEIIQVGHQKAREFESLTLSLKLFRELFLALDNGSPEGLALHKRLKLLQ
Described as above.

Results are given in words; binding and its absence hold for the method and conditions named. Some binding calls cover weakened binding; strength is not graded here. Sequences can lack the tags named with a protein.

Take “Xenopus laevis Msh2 (from UniProt A0A1B4WRB1 1-932)”: the binding result in test [1] and in test [2] was “binds” throughout.
